PubChem BioAssay AID652243 | Drosophila RNAi Screening Center – 2013

Screen: 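Knock-downs that decrease or increase androgen receptor reporter signal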 (primary screen)
Cell system: Drosophila S2R+ cells
Reagent: long dsRNA against Drosophila genes
Timing: 72 h (48 h, then 24 h hormone)
Conditions: synthetic androgen R1881 at 10 nM for 24 h
Measured: 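Firefly light from an androgen-responsive reporter and Renilla control light per well, raw and unnormalised, for each of two replicates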
Reading the numbers: firefly reporter light: higher = more light from androgen-responsive reporter; Renilla control light: higher = more constitutive control signal (cell number, transfection)
Call rule: 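Hit when the log firefly-to-Renilla ratio dropped or increased by a fixed fold versus the mean of GFP or LacZ controls across duplicate plates; lowering cut given as 1.5 and as 3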
Calls: active = hit: reporter lowered or raised; inactive = no hit
The deposit covers about 24,000 reagents; this is a random part of those with a known target gene and a result. Over the whole deposit, 246 (1%) got an active call. 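Plates not normalised; calls are printed but the firefly/Renilla ratio behind them is not deposited; fold cut for lowering reported inconsistently.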 Raw values vary from plate to plate and are shown uncorrected. Not given: the amount of reagent.

With dpr10 (defective proboscis extension response 10) [DRSC09015], how do the results read?
firefly reporter light, replicate 1: 2.81e5; firefly reporter light, replicate 2: 2.45e5; Renilla control light, replicate 1: 7.27e5; Renilla control light, replicate 2: 6.81e5; Outcome: inactive

What is on record for dpr10 (defective proboscis extension response 10) [DRSC10159]?
firefly reporter light, replicate 1: 2.97e5; firefly reporter light, replicate 2: 2.15e5; Renilla control light, replicate 1: 2.51e6; Renilla control light, replicate 2: 2.28e6; Outcome: inactive

What is on record for dpr10 (defective proboscis extension response 10) [DRSC10160]?
firefly reporter light, replicate 1: 1.88e5; firefly reporter light, replicate 2: 1.90e5; Renilla control light, replicate 1: 2.03e6; Renilla control light, replicate 2: 1.69e6; Outcome: inactive

With Mks1 (Meckel syndrome, type 1) [DRSC19697], what does the deposit list?
firefly reporter light, replicate 1: 5.72e5; firefly reporter light, replicate 2: 4.02e5; Renilla control light, replicate 1: 3.43e6; Renilla control light, replicate 2: 3.07e6; Outcome: inactive

With CG42254 (retired record) [DRSC06194], what was measured?
firefly reporter light, replicate 1: 56603; firefly reporter light, replicate 2: 72152; Renilla control light, replicate 1: 1.36e6; Renilla control light, replicate 2: 1.36e6; Outcome: inactive

With CG11211 [DRSC04851], what was measured?
firefly reporter light, replicate 1: 4.64e5; firefly reporter light, replicate 2: 4.29e5; Renilla control light, replicate 1: 3.15e6; Renilla control light, replicate 2: 2.71e6; Outcome: inactive

With CG18367 [DRSC06545], what does the deposit list?
firefly reporter light, replicate 1: 7.86e5; firefly reporter light, replicate 2: 9.02e5; Renilla control light, replicate 1: 2.04e6; Renilla control light, replicate 2: 1.89e6; Outcome: inactive

How did the screen score CG18367 [DRSC28507]?
firefly reporter light, replicate 1: 6.56e5; firefly reporter light, replicate 2: 1.32e6; Renilla control light, replicate 1: 1.05e6; Renilla control light, replicate 2: 2.17e6; Outcome: inactive

2 successive reagents already listed:
CG11211 [DRSC04851] | firefly reporter light, replicate 1 = 4.64e5; firefly reporter light, replicate 2 = 4.29e5; Renilla control light, replicate 1 = 3.15e6; Renilla control light, replicate 2 = 2.71e6; Outcome = inactive
CG18367 [DRSC06545] | firefly reporter light, replicate 1 = 7.86e5; firefly reporter light, replicate 2 = 9.02e5; Renilla control light, replicate 1 = 2.04e6; Renilla control light, replicate 2 = 1.89e6; Outcome = inactive

Further reagents:
With CG31960 [DRSC00281], what was measured?
firefly reporter light, replicate 1: 1.19e5; firefly reporter light, replicate 2: 1.34e5; Renilla control light, replicate 1: 1.06e6; Renilla control light, replicate 2: 7.88e5; Outcome: inactive

What did the screen give for CG31960 [DRSC26274]?
firefly reporter light, replicate 1: 4.16e5; firefly reporter light, replicate 2: 4.46e5; Renilla control light, replicate 1: 8.96e5; Renilla control light, replicate 2: 8.46e5; Outcome: inactive

With CG30195 [DRSC04155], what was measured?
firefly reporter light, replicate 1: 3.10e5; firefly reporter light, replicate 2: 4.67e5; Renilla control light, replicate 1: 1.99e6; Renilla control light, replicate 2: 2.00e6; Outcome: inactive

With mav (maverick) [DRSC17149], how do the results read?
firefly reporter light, replicate 1: 3.42e5; firefly reporter light, replicate 2: 3.91e5; Renilla control light, replicate 1: 3.91e6; Renilla control light, replicate 2: 2.98e6; Outcome: inactive
